# Inconclusive results, whose numbers are uncertain, are shown with a selection of clear calls. The source made the active and inactive calls.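 The calls were made as follows, unless noted: active = fitted dose curve reaches 40% lysis signal rise at or below the highest valid concentration tested for that sample; inconclusive = flat fit between 30% and 70%, or poor curve fit; inactive = signal falls, stays flat within 30%, or no crossing.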
# Test: C. neoformans lysis by adenylate kinase leakage – AK release luminescence, cherry-picks, dose response (AID 687000);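 also: luminescent detection of adenylate kinase leaking from lysed yeast; 0% = median neutral control signal and 100% = double that signal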
# Details: 4 h, 100% = twice the neutral-control signal; at 15 µM (top of the series) unless noted
row,Structure (SMILES),lysis activity
1,COc1ccc(S(=O)(=O)N[C@H]2C=C[C@H](CC(=O)N3CCC(Cc4ccccc4)CC3)O[C@@H]2CO)cc1,inconclusive: 39.1%
2,C[C@H](CO)N1C[C@H](C)[C@@H](CN(C)S(=O)(=O)c2cn(C)cn2)Oc2c(NC(=O)Nc3ccccc3)cccc2C1=O,inconclusive: 11.1%
3,CCCC(C)(C)C(=O)N1CCC1(C)C(=O)Nc1ccc(C)cc1 (stereo not given),inconclusive: 49.8% [at 23.5 µM]
4,COCCNC(=O)C[C@@H]1C[C@H]2c3cc(NC(=O)C4CCOCC4)ccc3O[C@H]2[C@H](CO)O1,inconclusive: 7.28%
5,CC(C)NC(=O)Nc1ccc2c(c1)C(=O)N([C@@H](C)CO)C[C@H](C)[C@@H](CN(C)S(=O)(=O)c1cccs1)OCCCC[C@H](C)O2,inconclusive: 22.9%
6,C[C@H](CO)N1C[C@H](C)[C@H](CN(C)Cc2ccc(Cl)c(Cl)c2)Oc2c(NC(=O)Nc3ccccc3)cccc2C1=O,inactive: -0.565%
7,COc1ccc(NC(=O)c2cn(C)c(=O)c3cc(OC)c(OC)cc23)c(OC)c1,inactive: 12.6%
8,O=C(C[C@@H]1CC[C@H]2[C@@H](COC[C@H](O)CN2Cc2ccc(Oc3ccccc3)cc2)O1)Nc1nccs1,inconclusive: 28.3%
9,CCCC(=O)N1CCCC1(C)C(=O)Nc1cc(C)ccc1C (stereo not given),inconclusive: 40.1% [at 26 µM]
10,CC(C)NC(=O)Nc1ccc2c(c1)C(=O)N([C@@H](C)CO)C[C@@H](C)[C@H](CN(C)C(=O)c1ccncc1)OCCCC[C@H](C)O2,inconclusive: 31.2%
11,O=C(CCN1CCCCC1)NCC[C@@H]1CC[C@H](NC(=O)c2ccc(F)cc2)[C@@H](CO)O1,inactive: -3.42%
12,Cc1c(Cl)cccc1NC(=S)NCCc1ccc(Cl)cc1,inconclusive: -7.37%
13,C[C@H]1CN([C@@H](C)CO)C(=O)Cc2cc(NC(=O)CCCCCC(=O)Nc3ccccc3N)ccc2O[C@H]1CN(C)Cc1ccc2c(c1)OCO2,inactive: -9.8%
14,CCC(=O)N(C)C[C@@H]1Oc2cc(C#CC(C)(C)O)ccc2S(=O)(=O)N([C@@H](C)CO)C[C@H]1C,inconclusive: 49.2%
15,COc1ccc(NC(=O)N(C)C[C@@H]2OCCCC[C@@H](C)Oc3ccc(NC(=O)Nc4ccc5c(c4)OCO5)cc3C(=O)N([C@@H](C)CO)C[C@H]2C)cc1,inconclusive: 41.3%
16,Cc1noc(C)c1NC(=O)Nc1ccc2c(c1)C(=O)N([C@@H](C)CO)C[C@H](C)[C@H](CN(C)S(=O)(=O)c1ccc(Cl)cc1)O2,inconclusive: 37.8%
17,COc1cccc(NC(=O)N2C[C@H](O)COC[C@H]3O[C@@H](CC(=O)NCc4ccccc4F)CC[C@@H]32)c1,inconclusive: 39.2%

# Look-ups from the entries so far:
# For lysis activity, CCCC(C)(C)C(=O)N1CCC1(C)C(=O)Nc1ccc(C)cc1 (stereo not given) has inconclusive: 49.8% [at 23.5 µM]
# For lysis activity, C[C@H]1CN([C@@H](C)CO)C(=O)Cc2cc(NC(=O)CCCCCC(=O)Nc3ccccc3N)ccc2O[C@H]1CN(C)Cc1ccc2c(c1)OCO2 has inactive: -9.8%
# For lysis activity, CC(C)NC(=O)Nc1ccc2c(c1)C(=O)N([C@@H](C)CO)C[C@H](C)[C@@H](CN(C)S(=O)(=O)c1cccs1)OCCCC[C@H](C)O2 has inconclusive: 22.9%

# Test: viability loss in HeLa cells – cell-based, ATP luminescence, cherry-pick samples, cytotoxicity control, dose response (AID 687004;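 active = a fitted half-maximal concentration no higher than twice the top valid tested dose, with signal falling as cells die; inconclusive = flat curve between -70% and -30%, or poor fit; inactive = the rest, including signal rising instead of falling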;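 also: 0% = neutral control median and -100% = staurosporine 10 µM control median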)
# Details: ATP luminescence (CellTiter-Glo), 48 h; at 26 µM (top of the series) unless noted
row,Structure (SMILES),"activity change, negative = cytotoxicity"
1,CNC(=O)CN(c1ccc(C)cc1)S(=O)(=O)c1ccccc1,inconclusive: -33.2% [at 30 µM]
2,C[C@@H](NC(=O)C[C@@H]1CC[C@H]2[C@@H](COC[C@@H](O)CN2Cc2cc(F)ccc2F)O1)c1ccccc1,inconclusive: 39.2%
3,CC(C)NC(=O)Nc1ccc2c(c1)CC(=O)N([C@H](C)CO)C[C@H](C)[C@@H](CN(C)C(=O)Nc1ccc3c(c1)OCO3)O2,inconclusive: -11.5%
4,CCCC(C)(C)C(=O)N1CCC1(C)C(=O)Nc1ccc(C)cc1 (stereo not given),inactive: 3.54% [at 38 µM]
5,CCC(=O)N1CCCC1(C)C(=O)Nc1ccc(C)c(C)c1 (stereo not given),inconclusive: -22.3% [at 42 µM]
6,CC(=O)c1cccc(NC(=S)NC2CCCCCCC2)c1,inactive: 6.71%
7,O=C(N[C@H]1CC[C@H](CCn2cc(-c3ccccn3)nn2)O[C@H]1CO)c1ccc(F)cc1,inconclusive: -61.1%

# Test: RMG-1 ovarian cancer cell viability loss – cherry-pick, dose response (AID 687029;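 active = signal drop whose fitted half-maximal concentration is at most twice the top valid dose, in every test run; inconclusive = mixed calls across runs, poor fit, or flat 30 to 70% inhibition; inactive = wrong direction, flat within 30%, or potency beyond limit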;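 also: cells exposed to compound for 96 hours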)
# Details: RMG-1 viability, CellTiterGlo ATP luminescence, 96 h; at 35 µM (top of the series)
row,Structure (SMILES),"activity change, negative = inhibition"
1,COc1ccc(NC(=O)C[C@H]2C(=O)N(c3ccc(OC)cc3)C[C@@H]2C)cc1,inactive: -16.3%
2,COC(=O)[C@]12CCCCC=C1N(Cc1ccc(Cl)cc1Cl)C(=O)[C@H](CC(=O)N1CCN(C(=O)c3ccco3)CC1)C2,inconclusive: 10.7%
3,CCCNC(=O)COc1nc2ccccc2nc1N1CCOCC1,inconclusive: 33.5%
4,CC1(Cc2ccc(OC(F)(F)F)cc2)C(=O)Nc2ccc(S(=O)(=O)NC3CCCCC3)cc21 (stereo not given),inconclusive: 2.54%
5,CCCCn1c(O)c(N=NC(=O)Cn2c(C(F)(F)F)nc3ccccc32)c2ccccc21,inconclusive: 13.3%
6,O=C(Nc1ccc(C(F)(F)F)cc1)N1C[C@@H]2N[C@H](C1)C2c1ccc(/C=C/c2ccccc2)cc1 (stereo not given in full),inactive: 18%
7,CCOc1ccc(C(CN2CCOCC2)C(C)=O)cc1OC (stereo not given),inconclusive: 30.7%
8,C[C@H]1CN([C@@H](C)CO)S(=O)(=O)c2ccc(C#Cc3ccccc3F)cc2O[C@@H]1CN(C)CC1CCOCC1,inactive: 23.9%
9,Cc1ccc(N(NC(=O)C(O)(c2ccccc2)c2ccccc2)C(=O)CCl)cc1,inconclusive: -18.2%
10,CCCOc1ccc2[nH]c(C(=O)N/N=C/c3cc(OC)c(OC)c(OC)c3)cc2c1,inactive: 32.7%
11,Oc1ccc(F)c2cccnc12,inconclusive: 24%
12,O=C(C[C@@H]1C[C@@H]2c3cc(NC(=O)Cc4ccncc4)ccc3O[C@@H]2[C@H](CO)O1)NCc1ccc(-c2ccccc2)cc1,inactive: 31.6%
13,COc1cccc2c1C(=O)c1c(O)c3c(c(O)c1C2=O)CC(O)(C(=O)CO)CC3OC1CC(N(C)C)C(O)C(C)O1 (stereo not given),inconclusive: 21.3%
14,Nc1nnnn1/N=C/C(Br)=C/c1ccccc1,inconclusive: 23.3%
15,O=C(Cc1ccccn1)N[C@@H]1CC[C@@H](CCn2cc(-c3ccccc3)nn2)O[C@H]1CO,inactive: 5.24%
16,O=C(CCl)N(Cc1ccccc1)c1ccccc1,inconclusive: 9.53%
